According to patent US4705786A, “Novel oxadiazolyl-1,4-dihydropyridines useful as antihypertensive agents” (Sumitomo Pharmaceuticals Company, Limited, priority 1984, dated 1987):

Tested on: isolated rabbit aortic strip
Assay: inhibition of norepinephrine-induced contractions of isolated rabbit aortic strip potentiated by ouabain
Assay type: cell-based
Conditions: Oryctolagus cuniculus, read-out: concentration at which norepinephrine-induced contractions are inhibited

## COC(=O)C1=C(C)NC(C)=C(C(=O)OC)C1c1ccccc1[N+](=O)[O-] [Compound R2, Dimethyl 1,4-dihydro-2,6-dimethyl-4-(2-nitrophenyl)-3,5-dicarboxylate, reference compound]
  minimal effective concentration: > 0.1 µM
